These are yes or no findings as the source states them, for the method shown. In cells and extracts the contact can be indirect. A yes stands for co-enrichment or nearness to the bait. Other partners may have been found. Where a sequence is shown, tags or fusion partners need not be part of it.
Target: T1, Flag-HA-tagged CARM1 (pCMV10-Flag-CARM1-HA) (UniProt Q86X55)
T1 sequence: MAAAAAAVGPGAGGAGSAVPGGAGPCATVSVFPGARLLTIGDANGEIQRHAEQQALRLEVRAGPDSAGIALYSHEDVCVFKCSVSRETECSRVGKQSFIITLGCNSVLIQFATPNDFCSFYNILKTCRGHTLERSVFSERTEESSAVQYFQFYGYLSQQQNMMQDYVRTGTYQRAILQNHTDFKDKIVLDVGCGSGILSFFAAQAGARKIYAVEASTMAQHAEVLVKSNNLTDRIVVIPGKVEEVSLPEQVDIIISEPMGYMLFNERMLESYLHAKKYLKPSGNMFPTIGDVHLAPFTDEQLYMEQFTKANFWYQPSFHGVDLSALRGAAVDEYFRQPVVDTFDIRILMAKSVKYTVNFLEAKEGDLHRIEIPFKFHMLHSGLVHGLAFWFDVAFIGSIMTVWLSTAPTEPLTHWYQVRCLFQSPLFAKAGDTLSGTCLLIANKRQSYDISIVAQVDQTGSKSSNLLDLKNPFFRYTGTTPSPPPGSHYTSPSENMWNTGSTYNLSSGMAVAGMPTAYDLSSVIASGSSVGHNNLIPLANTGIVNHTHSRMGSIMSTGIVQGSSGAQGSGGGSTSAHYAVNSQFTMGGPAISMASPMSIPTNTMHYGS
Test: affinity purification with mass spectrometry; nuclear extracts of HEK293 cells stably expressing Flag-HA-tagged CARM1; Anti-FLAG M2 Affinity gel; DNase I added; washes with 150 mM NaCl then 420 mM NaCl, 1% Triton X-100; eluted with 3x Flag peptides; LC-MS/MS

Chains of the proteins cited; added tags and fusions are not shown.
UniProt Q8WXI9: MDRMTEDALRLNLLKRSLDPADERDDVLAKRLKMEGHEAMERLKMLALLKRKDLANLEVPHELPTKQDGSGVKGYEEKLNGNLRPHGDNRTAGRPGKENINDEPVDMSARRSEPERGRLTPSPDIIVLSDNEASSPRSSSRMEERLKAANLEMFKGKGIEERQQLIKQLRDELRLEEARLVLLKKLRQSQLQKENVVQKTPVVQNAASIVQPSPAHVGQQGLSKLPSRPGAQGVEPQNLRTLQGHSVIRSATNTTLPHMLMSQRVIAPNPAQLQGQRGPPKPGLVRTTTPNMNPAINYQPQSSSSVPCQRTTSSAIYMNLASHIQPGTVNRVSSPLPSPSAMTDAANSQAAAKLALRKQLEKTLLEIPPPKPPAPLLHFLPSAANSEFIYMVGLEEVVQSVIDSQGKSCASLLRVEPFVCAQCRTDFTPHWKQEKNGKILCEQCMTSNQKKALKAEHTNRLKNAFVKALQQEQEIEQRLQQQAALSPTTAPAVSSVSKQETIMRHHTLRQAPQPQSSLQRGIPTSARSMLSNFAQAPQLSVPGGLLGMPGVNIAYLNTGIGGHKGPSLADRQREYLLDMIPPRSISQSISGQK

Substance: GATAD2B (endogenous) (from UniProt Q8WXI9 1-593)
- binding: binds

Reference: paper PMC11229315
